# In all, about 400,000 compounds went through this assay and about 13,000 (3.2%) were called active. This list was built around the results that the source calls inconclusive (neither active nor inactive); the mix of calls is not that of the screen. Calls come from the whole dose curve; as a rule, active = well fitted cell-killing curve with a large enough effect; inconclusive = small, poorly fitted or top-dose-only effect, or effect the other way; inactive = flat fitted curve, though single readings scatter. Potencies beside an inconclusive call are fits to weak or partial responses and may not hold up.
# Assay: qHTS assay for MDR1-selective chemotherapeutics: Primary screen using the drug-selected MDR subline cells KB-V1; note: nearly all actives have a fitted effect of over 60% in size
# Details: KB-V1 MDR cells viability, CellTiter-Glo, 72 h; activity change, negative = cytotoxicity: at 46.1 µM (top of the series)
# Method in brief: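 KB-V1 cells (P-gp-expressing MDR subline of KB-3-1) in phenol-red-free DMEM with 10% FBS were exposed to library compounds over a concentration series for 72 h at 37 degrees C. Viability read by CellTiter-Glo luminescence; concentration-effect curves fitted after normalization.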
# % is set by controls: 0 for no effect and ±100 for the full control effect; potency is the fitted concentration of half-maximal effect.
Compound,Potency,"activity change, negative = cytotoxicity"
Cc1cccc(NC(=O)[C@H](Cc2ccccc2)NC(=O)[C@@H]2Cc3ccccc3CN2)c1,inactive,–
COc1ccc(S(=O)(=O)N(C)CC(=O)Nc2ccccc2C(F)(F)F)cc1Cl,active: 14.6 µM,–
FC(F)Oc1ccc(-n2cc(-c3ccc(Cl)cc3)[n+]3c2CCCCC3)cc1,inactive,–
O=C(Cn1ncc2c1-c1ccccc1OC2)Nc1ccc(S(=O)(=O)N2CCCCC2)cc1,"inconclusive: 0.0046 µM [cytotoxic, full curve, poor fit]",–
CCOc1ccc(Nc2nc(N)nc(CN(C)C3CCCCC3)n2)cc1,"inconclusive: 29.1 µM [cytotoxic, single point]",–
COc1ccc(CNC(=O)c2c(O)c3ccccc3n(C)c2=O)cc1OC,"inconclusive: 16.4 µM [cytotoxic, single point]",–
O=C(NC(=S)NCc1nc2ccccc2[nH]1)c1ccccc1F,"inconclusive: 18.4 µM [cytotoxic, single point]",–
Cc1c(C(=O)Nc2cccc(F)c2)cnn1-c1ccccc1,"inconclusive: 18.4 µM [cytotoxic, single point]",–
CN(C)c1nc(-c2ccccn2)nnc1-c1ccccc1,"inconclusive: 1.3 µM [cytotoxic, partial curve, poor fit]",–
CCOc1ccccc1/C=N/Nc1ccnc(=O)[nH]1,inactive,–
Cc1cc(C=O)c(C)n1-c1ccc(N2CCCCC2)c([N+](=O)[O-])c1,"inconclusive: 29.1 µM [cytotoxic, single point]",–
COCC1CCCCN1Cc1cn(-c2ccccc2)nc1-c1ccc2c(c1)OCO2 (stereo not drawn),"inconclusive: 4.11 µM [cytotoxic, full curve]",–
COc1ccc(S(=O)(=O)n2c(CCN3CCOCC3)nc3ccccc32)cc1,"inconclusive: 13 µM [cytotoxic, partial curve]",–
Cc1nn(Cc2ccccc2Cl)c(C)c1C(=O)N(C)CC(=O)Nc1cccc(F)c1,"inconclusive: 20.6 µM [cytotoxic, single point]",–
Clc1ccccc1CSc1nncn1NC/C=C/c1ccccc1,active: 20.6 µM,–
COc1ccc(CCN2C(=O)CC(NNC(=O)c3ccccc3Br)C2=O)cc1OC (stereo not drawn),"inconclusive: 14.6 µM [cytotoxic, partial curve]",–
COc1ccccc1-c1sc2cc3c(cc2c1-c1ccc(OCCN2CCCCC2)cc1)OCO3,"inconclusive: 29.1 µM [cytotoxic, single point]",–
CCC(C)CCN1C(Nc2ccccc2)=NC[C@@H]1Cc1ccccc1 (stereo partly drawn),"inconclusive: 16.4 µM [cytotoxic, single point]",–
c1ccc(-c2cc(-c3nnc4n3N=C(c3ccc5ccccc5c3)CS4)[nH]n2)cc1,active: 7.31 µM,–
COc1ccc(-n2cnc3c(N)nc(N)nc32)cc1,inactive,–
COc1ccc(/C=N/NC(=O)c2cc(-c3ccccc3OC(C)C)nc3ccccc23)cc1CN1CCOCC1,"inconclusive: 9.2 µM [cytotoxic, partial curve]",–
COc1ccc(-c2cc(C(=O)Nc3ccc(C)c(N)c3)c3ccccc3n2)cc1,"inconclusive: 25.9 µM [cytotoxic, single point]",–
COc1ccc(CNC(=O)Cn2c(=O)n3nc(-c4cccc(F)c4)nc3c3ccccc32)cc1OC,"inconclusive: 29.1 µM [rising, single point]",–

# Entries of single compounds, quoted from the list. Order of values: Potency | activity change, negative = cytotoxicity
# COc1ccc(-c2cc(C(=O)Nc3ccc(C)c(N)c3)c3ccccc3n2)cc1 is listed with inconclusive: 25.9 µM [cytotoxic, single point] | –
# Cc1cc(C=O)c(C)n1-c1ccc(N2CCCCC2)c([N+](=O)[O-])c1 is listed with inconclusive: 29.1 µM [cytotoxic, single point] | –
# O=C(NC(=S)NCc1nc2ccccc2[nH]1)c1ccccc1F is listed with inconclusive: 18.4 µM [cytotoxic, single point] | –
# COc1ccccc1-c1sc2cc3c(cc2c1-c1ccc(OCCN2CCCCC2)cc1)OCO3 is listed with inconclusive: 29.1 µM [cytotoxic, single point] | –

# (next part)

Compound,Potency,"activity change, negative = cytotoxicity"
N#Cc1ccccc1Cn1c(=O)n(CCC(=O)NCc2ccco2)c(=O)c2ccccc21,"inconclusive: 9.2 µM [cytotoxic, partial curve]",–
COCCOC(=O)c1[nH]c2c(c1C)C(=O)CC(c1ccccc1)C2 (stereo not drawn),active: 0.731 µM,–
O=C1N/C(=C/c2ccc(N3CCCC3)cc2)C(=O)N1c1ccccc1,inactive,–
CCc1ccc(S(=O)(=O)Nc2c(NC3CCCCC3)c3ccccc3oc2=O)cc1,–,inconclusive: 22.6%
Cc1noc(C)c1C(=O)N1CCC1(C)C(=O)NS(=O)(=O)c1ccccc1C(F)(F)F (stereo not drawn),inactive,–
COc1cc(C2c3cc4c(cc3OC(N3CCCC3)C2C)OCO4)cc(OC)c1O (stereo not drawn),"inconclusive: 23.1 µM [cytotoxic, partial curve, poor fit]",–
CN(C)S(=O)(=O)Oc1ccsc1C(=O)Nc1ccc(Cl)c(Cl)c1,"inconclusive: 18.4 µM [cytotoxic, partial curve, poor fit]",–
Nc1cccc(CCc2nc3cc4ccccc4cc3[nH]2)c1,active: 5.8 µM,–
Brc1ccc(-c2csc(N3CCC(c4ccccc4)C3)n2)cc1 (stereo not drawn),inactive,–
CC(C)C[C@H]1CN([C@@H](CC(C)C)CN2CCCC2CN2C(=S)NC[C@@H]2Cc2ccccc2)C(=S)N1CC1CCCCC1 (stereo partly drawn),"inconclusive: 16.4 µM [cytotoxic, partial curve]",–
Cn1c(SCc2cccc(C#N)c2)nc2ccccc2c1=O,"inconclusive: 20.6 µM [cytotoxic, partial curve, poor fit]",–
COc1ccc(OC)c(NS(=O)(=O)c2ccc3c(c2)CCCN3C(=O)C2CCC2)c1,"inconclusive: 29.1 µM [cytotoxic, single point]",–
O=C(CCCn1c(=O)[nH]c2cc(Cl)ccc2c1=O)NCCCN1CCN(c2ccc(F)cc2)CC1,inactive,–
CC(C)(C)NC(=O)NC(=O)CN1CCN(S(=O)(=O)c2ccc3c(c2)CCCC3)CC1,"inconclusive: 20.6 µM [cytotoxic, single point]",–
O=C(Nc1ccc2c(c1)OCCO2)c1ccc(Cl)c(S(=O)(=O)N2CCCCC2)c1,"inconclusive: 25.9 µM [cytotoxic, single point]",–
CCCc1cc(=O)oc2cc(OCC(=O)Nc3ccccn3)ccc12,"inconclusive: 20.6 µM [rising, partial curve, poor fit]",–
O=C1CCN(S(=O)(=O)c2ccccc2)CCN1CCOCc1cccc(F)c1,"inconclusive: 29.1 µM [rising, single point]",–
O=C(N/N=C/c1ccccc1)c1[nH]c2ccc(Br)cc2c1-c1ccccc1,active: 0.82 µM,–
COc1cc(Br)c(C2CC(=O)Nc3cc4c(cc32)OCCO4)cc1OC (stereo not drawn),"inconclusive: 18.4 µM [cytotoxic, single point]",–
COc1ccc(OC)c(-c2cc(C(=O)Nc3cccc(Cl)c3)no2)c1,"inconclusive: 13 µM [cytotoxic, partial curve, poor fit]",–
Cc1ccc(S(=O)(=O)Nc2ccc3c(c2)CCCN3C(=O)c2cccs2)cc1C,inactive,–
COc1cccc(C(c2sc3nc(-c4ccco4)nn3c2O)N2CCC3(CC2)OCCO3)c1 (stereo not drawn),inactive,–
Cc1cccc(C)c1NS(=O)(=O)c1ccc(-c2cnc(C3CC3)o2)cc1,active: 0.731 µM,–

Compound,Potency,"activity change, negative = cytotoxicity"
ON=C1c2ccccc2-c2ccc(Br)cc21,inactive,–
Cn1c2ccsc2c2ncn(Cc3ccccc3F)c(=O)c21,inactive,–
Cc1cccc(C)c1Nc1c(-c2ccccn2)nc2ccccn12,"inconclusive: 18.4 µM [cytotoxic, partial curve, poor fit]",–
CN(Cc1nccn1C)C(=O)CC1C(=O)NCCN1CC(c1ccccc1)c1ccccc1 (stereo not drawn),inactive,–
COc1ccc(CC(=O)OC(C)CN2CCCC2)cc1 (stereo not drawn),"inconclusive: 29.1 µM [rising, single point]",–
Cc1ccccc1NS(=O)(=O)c1cc2c(cc1C)N(C)CCO2,"inconclusive: 23.1 µM [rising, single point]",–
CCCNC(=O)c1cc(C2CCCCN2S(=O)(=O)c2ccc(OC)cc2)on1 (stereo not drawn),inactive,–
CN1CCN(S(=O)(=O)c2cccc(C(=O)N(Cc3ccccc3)c3ccccc3)c2)CC1,"inconclusive: 6.51 µM [cytotoxic, partial curve]",–
CC(Sc1nc(N)cc(N)n1)C(=O)Nc1ccc(N2CCOCC2)cc1 (stereo not drawn),"inconclusive: 10.3 µM [rising, partial curve, poor fit]",–
Cc1ccc(C(=O)NCCN2CCC(n3c(=O)[nH]c4ccccc43)CC2)cc1,inactive,–
CN(Cc1ccccc1)c1nc2c(c(=O)[nH]c(=O)n2C)n1CCCc1ccccc1,"inconclusive: 8.2 µM [cytotoxic, partial curve, poor fit]",–
CCOC(=O)c1ccc(NC(=O)CC2C(=O)N(c3ccc(F)cc3)C(=O)N2CCC(C)C)cc1 (stereo not drawn),"inconclusive: 32.6 µM [cytotoxic, single point]",–
COc1ccc(NC(=O)CN2CCC3(O)CCCCC3C2c2cc(OC)ccc2OC)cc1 (stereo not drawn),"inconclusive: 25.9 µM [rising, single point]",–
C(=C\c1ccc2ccccc2n1)/c1ccc2ccccc2n1,"inconclusive: 6.51 µM [cytotoxic, partial curve]",–
Cc1[nH]c2ccccc2c1C(=O)c1cc([C@H](NC(=O)OC(C)(C)C)C(C)C)sc1N,"inconclusive: 23.1 µM [cytotoxic, single point]",–
COc1cccc(C2c3cc4c(cc3OC(N3CCOCC3)C2C)OCO4)c1O (stereo not drawn),"inconclusive: 18.4 µM [cytotoxic, single point]",–
COc1cccc(C2=NOC(C(=O)N3CCc4ccccc4C3)C2)c1 (stereo not drawn),"inconclusive: 29.1 µM [cytotoxic, single point]",–
COc1ccc(/C=C/C(=O)NC(=S)NCc2ccccc2)cc1OC,inactive,–
CCCN(CCC)CCCNC(=O)c1sc2nc3n(c(=O)c2c1C)CCC3,inactive,–
CC1=C/C(=C(\c2cc(C)c(O)c(Br)c2)c2ccccc2S(=O)(=O)O)C=C(Br)C1=O,"inconclusive: 25.9 µM [cytotoxic, single point]",–
O=C(c1ccc(Br)cc1)c1cc(-c2ccccn2)c(N2CCOCC2)s1,active: 4.11 µM,–
CC(C)n1cc(CN2CCC(C(=O)Nc3cccc(-c4cscn4)c3)CC2)cn1,"inconclusive: 6.51 µM [rising, partial curve, poor fit]",–

# From PubChem BioAssay AID1347076 (National Center for Advancing Translational Sciences (NCATS), 2019)
